# ± gives the standard deviation of the averaged measurements. The list shows a part of the results, in another mix than the full data.
# By UniProt entry, the sequences of proteins in these tests, tags left out. Where a name states a change or a piece, a line headed by the entry shows the natural chain unless it says otherwise.
# UniProt Q86Y56: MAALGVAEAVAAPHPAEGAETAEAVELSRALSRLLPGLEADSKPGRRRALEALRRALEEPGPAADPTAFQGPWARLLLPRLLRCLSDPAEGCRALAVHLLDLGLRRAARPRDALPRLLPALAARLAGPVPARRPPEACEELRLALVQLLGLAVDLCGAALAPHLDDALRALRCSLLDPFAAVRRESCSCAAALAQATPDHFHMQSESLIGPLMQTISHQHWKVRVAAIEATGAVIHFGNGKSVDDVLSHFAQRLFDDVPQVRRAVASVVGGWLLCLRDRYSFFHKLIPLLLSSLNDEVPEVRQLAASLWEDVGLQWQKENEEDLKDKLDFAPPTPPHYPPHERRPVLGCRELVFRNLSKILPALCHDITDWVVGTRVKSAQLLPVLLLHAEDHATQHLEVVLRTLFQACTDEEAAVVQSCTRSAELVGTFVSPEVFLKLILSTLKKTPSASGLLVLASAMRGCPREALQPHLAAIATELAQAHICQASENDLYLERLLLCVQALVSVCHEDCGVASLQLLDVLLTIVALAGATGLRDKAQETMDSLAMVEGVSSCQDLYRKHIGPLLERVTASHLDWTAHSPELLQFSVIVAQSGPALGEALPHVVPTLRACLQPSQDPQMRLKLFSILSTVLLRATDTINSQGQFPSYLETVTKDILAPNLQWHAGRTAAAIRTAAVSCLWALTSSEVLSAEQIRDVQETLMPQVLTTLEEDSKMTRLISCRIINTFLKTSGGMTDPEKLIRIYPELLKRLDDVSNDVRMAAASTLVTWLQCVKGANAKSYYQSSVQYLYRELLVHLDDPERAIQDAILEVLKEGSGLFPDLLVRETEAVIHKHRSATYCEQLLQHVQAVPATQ
# UniProt Q8N5W9: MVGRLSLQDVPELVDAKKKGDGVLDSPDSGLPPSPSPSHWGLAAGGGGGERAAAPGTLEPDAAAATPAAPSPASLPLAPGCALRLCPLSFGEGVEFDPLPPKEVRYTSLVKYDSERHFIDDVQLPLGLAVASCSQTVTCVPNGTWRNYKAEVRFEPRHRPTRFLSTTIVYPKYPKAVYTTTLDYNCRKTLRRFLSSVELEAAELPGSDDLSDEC
# UniProt Q8N122, whole entry: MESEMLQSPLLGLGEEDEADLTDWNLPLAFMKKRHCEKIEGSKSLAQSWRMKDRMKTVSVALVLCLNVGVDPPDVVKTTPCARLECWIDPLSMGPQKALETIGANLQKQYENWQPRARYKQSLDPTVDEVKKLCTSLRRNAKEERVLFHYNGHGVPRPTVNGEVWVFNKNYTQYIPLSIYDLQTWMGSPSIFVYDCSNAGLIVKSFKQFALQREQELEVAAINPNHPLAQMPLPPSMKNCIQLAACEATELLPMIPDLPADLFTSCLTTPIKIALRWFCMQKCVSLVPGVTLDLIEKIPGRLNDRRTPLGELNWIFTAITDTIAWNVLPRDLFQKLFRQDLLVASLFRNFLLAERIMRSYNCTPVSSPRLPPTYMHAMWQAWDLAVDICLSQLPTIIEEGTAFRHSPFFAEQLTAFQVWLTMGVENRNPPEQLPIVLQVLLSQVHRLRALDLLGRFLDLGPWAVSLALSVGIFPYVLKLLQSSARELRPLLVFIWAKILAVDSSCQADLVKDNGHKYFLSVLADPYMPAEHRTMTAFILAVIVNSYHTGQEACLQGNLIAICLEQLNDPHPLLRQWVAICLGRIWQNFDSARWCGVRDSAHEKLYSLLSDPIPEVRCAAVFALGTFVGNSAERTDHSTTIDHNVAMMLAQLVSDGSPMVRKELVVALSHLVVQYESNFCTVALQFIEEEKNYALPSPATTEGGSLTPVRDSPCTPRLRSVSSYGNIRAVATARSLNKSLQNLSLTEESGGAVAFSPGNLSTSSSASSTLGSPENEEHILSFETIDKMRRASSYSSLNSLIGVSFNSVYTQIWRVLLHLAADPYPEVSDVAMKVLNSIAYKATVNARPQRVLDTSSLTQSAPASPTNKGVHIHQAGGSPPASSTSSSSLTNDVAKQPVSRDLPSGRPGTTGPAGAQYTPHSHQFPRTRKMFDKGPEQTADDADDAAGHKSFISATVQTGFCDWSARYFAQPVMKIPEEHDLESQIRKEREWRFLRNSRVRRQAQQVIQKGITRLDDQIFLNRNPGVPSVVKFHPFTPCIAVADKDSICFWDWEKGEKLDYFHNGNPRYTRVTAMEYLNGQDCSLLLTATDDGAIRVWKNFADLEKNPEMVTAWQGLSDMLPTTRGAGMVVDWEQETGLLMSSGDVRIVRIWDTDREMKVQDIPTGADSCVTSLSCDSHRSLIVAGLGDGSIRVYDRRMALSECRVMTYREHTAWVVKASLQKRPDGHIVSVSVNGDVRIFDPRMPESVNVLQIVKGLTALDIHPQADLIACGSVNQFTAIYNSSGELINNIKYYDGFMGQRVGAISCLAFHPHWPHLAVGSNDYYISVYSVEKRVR
# UniProt Q86V21: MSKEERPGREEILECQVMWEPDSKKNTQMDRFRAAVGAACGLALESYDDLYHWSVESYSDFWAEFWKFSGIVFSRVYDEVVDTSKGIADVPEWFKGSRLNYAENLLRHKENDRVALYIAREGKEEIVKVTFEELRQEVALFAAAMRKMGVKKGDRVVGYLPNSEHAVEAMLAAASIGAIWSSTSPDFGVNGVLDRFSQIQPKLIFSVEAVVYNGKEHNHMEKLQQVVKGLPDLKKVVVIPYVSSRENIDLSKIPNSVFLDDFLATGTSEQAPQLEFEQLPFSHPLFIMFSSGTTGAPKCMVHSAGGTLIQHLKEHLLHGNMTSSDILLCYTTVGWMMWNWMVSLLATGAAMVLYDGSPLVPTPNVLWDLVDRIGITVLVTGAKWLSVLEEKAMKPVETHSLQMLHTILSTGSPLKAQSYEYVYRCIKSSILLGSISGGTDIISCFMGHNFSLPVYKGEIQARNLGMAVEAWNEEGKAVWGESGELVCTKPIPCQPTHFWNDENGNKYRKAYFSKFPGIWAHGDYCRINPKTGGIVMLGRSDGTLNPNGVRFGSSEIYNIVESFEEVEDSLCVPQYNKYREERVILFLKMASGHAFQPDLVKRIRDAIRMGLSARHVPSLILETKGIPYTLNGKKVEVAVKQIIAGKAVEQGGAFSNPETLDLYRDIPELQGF
# UniProt Q7Z6V5: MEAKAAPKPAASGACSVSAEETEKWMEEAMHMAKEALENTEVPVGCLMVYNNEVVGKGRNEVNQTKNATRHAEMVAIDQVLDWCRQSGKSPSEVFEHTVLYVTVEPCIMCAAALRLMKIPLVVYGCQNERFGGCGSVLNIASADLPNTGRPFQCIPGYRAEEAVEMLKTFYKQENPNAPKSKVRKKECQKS
# UniProt Q86W56: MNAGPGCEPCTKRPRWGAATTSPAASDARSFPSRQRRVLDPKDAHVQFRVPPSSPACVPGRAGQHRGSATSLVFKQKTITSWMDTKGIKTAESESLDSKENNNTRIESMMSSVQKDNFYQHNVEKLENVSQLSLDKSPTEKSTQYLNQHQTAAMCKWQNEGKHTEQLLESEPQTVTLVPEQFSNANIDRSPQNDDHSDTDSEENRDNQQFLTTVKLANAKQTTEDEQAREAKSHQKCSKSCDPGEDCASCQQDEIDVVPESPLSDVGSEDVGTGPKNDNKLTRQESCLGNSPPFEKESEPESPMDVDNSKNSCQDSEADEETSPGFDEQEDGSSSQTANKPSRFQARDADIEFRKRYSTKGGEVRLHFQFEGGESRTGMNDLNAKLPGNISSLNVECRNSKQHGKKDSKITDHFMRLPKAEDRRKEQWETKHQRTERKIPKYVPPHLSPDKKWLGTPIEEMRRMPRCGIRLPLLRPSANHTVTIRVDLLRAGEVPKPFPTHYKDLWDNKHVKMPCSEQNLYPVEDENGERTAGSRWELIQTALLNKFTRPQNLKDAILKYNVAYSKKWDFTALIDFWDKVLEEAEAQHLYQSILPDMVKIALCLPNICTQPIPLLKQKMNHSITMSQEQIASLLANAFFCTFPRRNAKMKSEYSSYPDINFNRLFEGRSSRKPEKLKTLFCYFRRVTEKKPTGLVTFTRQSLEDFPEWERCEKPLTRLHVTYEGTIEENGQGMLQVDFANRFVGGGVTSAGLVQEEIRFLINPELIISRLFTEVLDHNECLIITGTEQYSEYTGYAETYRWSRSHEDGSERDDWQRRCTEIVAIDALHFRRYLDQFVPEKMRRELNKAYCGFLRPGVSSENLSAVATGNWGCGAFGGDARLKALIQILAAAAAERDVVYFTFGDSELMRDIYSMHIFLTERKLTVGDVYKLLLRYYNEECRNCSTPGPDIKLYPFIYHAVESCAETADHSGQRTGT
# UniProt Q8N6T7, whole entry: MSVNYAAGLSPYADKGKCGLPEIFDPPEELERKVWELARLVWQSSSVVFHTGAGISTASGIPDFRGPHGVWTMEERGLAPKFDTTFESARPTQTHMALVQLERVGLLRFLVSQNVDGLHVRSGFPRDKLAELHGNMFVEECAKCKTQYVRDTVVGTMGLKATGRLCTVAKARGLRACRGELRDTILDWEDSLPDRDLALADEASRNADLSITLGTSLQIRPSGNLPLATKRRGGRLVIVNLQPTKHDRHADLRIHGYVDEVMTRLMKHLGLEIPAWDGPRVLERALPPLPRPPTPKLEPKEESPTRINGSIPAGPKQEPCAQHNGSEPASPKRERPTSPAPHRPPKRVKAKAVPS
# UniProt Q86X55: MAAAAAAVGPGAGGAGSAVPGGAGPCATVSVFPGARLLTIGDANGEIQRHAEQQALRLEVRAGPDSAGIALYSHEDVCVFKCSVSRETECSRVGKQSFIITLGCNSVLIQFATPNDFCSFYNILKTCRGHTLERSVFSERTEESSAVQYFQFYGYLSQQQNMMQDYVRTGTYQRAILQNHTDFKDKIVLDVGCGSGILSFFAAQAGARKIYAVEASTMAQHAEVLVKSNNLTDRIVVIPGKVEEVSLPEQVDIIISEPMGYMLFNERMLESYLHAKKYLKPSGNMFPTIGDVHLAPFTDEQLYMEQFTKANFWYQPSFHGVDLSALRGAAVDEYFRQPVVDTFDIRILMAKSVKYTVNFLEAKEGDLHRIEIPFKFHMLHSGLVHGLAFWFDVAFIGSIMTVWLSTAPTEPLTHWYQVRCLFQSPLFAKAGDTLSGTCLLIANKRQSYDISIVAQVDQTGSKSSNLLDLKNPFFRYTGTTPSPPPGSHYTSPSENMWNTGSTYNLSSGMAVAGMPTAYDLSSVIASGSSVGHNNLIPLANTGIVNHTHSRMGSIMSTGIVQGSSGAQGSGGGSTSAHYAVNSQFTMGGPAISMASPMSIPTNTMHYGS
# UniProt Q86YV0: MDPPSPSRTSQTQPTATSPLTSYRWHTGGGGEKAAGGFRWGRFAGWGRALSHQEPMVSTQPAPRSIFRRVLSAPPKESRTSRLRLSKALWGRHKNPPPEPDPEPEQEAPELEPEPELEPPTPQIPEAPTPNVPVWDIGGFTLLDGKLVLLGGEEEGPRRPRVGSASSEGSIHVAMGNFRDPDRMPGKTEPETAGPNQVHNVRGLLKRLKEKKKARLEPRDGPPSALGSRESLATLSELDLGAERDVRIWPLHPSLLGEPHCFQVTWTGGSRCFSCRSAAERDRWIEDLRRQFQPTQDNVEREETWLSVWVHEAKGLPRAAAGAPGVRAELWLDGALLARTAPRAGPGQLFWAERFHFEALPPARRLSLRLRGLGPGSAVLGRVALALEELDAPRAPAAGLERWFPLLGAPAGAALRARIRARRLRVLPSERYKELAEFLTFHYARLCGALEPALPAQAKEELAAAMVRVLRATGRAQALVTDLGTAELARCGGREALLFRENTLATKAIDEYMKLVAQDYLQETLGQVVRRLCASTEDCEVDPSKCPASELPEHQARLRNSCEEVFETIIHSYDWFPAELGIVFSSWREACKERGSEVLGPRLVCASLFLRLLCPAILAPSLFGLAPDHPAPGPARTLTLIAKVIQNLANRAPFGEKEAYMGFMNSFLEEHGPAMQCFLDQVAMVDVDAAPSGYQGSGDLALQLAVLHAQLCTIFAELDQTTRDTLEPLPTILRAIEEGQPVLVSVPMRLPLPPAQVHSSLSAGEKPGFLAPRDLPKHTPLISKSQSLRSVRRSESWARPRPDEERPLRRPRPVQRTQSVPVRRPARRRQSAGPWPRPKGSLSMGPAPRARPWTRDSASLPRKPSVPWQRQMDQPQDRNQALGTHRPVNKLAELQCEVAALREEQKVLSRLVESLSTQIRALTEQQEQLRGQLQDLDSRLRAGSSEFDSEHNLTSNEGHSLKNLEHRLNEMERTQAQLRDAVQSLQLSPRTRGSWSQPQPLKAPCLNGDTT
# UniProt Q8NB37: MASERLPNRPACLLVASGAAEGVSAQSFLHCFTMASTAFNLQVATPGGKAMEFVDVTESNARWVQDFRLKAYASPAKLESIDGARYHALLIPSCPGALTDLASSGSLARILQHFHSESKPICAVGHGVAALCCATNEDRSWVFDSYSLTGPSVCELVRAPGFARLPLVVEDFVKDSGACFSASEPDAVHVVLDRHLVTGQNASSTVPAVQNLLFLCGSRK
# Compound: Nc1ncnc2c1ncn2[C@@H]1O[C@H](COP(=O)(O)OP(=O)(O)NP(=O)(O)O)[C@@H](O)[C@H]1O [adenylyl imidodiphosphate]
# Test: NP40-soluble protein abundance relative to vehicle (solubility fold change) (ratio); higher = more soluble protein in presence of AMP-PNP
# How it was run: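 Jurkat crude lysate (Dounce-homogenised) was treated with eight concentrations from 0.1 to 10 mM for 10 min at room temperature, then 3 min at 37 °C. It was solubilised with 0.8% NP40 and benzonase (60 min, 4 °C) and ultracentrifuged, and the supernatant was TMT-labelled for LC-MS/MS. Intensities were vsn-normalised, and the value is the fold change against the NP40-processed vehicle per replicate, from three independent experiments.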
Target,NP40-soluble protein abundance (concentration: 1mM),NP40-soluble protein abundance (concentration: 2mM),NP40-soluble protein abundance (concentration: 4mM),NP40-soluble protein abundance (concentration: 6mM),NP40-soluble protein abundance (concentration: 8mM),NP40-soluble protein abundance (concentration: 10mM)
UniProt Q86Y56,0.976 ± 0.045,0.931 ± 0.038,0.977 ± 0.037,1.01 ± 0.022,0.997 ± 0.055,0.991 ± 0.04
C1orf174 (UniProt Q8IYL3),1.008 ± 0.0078,1.1 ± 0.1,1.05 ± 0.049,1.1 ± 0.049,1.11 ± 0.041,1.11 ± 0.08
RFLNB (UniProt Q8N5W9),0.988 ± 0.023,1.05 ± 0.017,1.01 ± 0.034,1 ± 0.051,1.01 ± 0.036,1.03 ± 0.055
UniProt Q8N122 and related entries,1.01 ± 0.031,0.955 ± 0.021,0.985 ± 0.011,0.972 ± 0.013,0.967 ± 0.018,0.994 ± 0.034
DTWD2 (UniProt Q8NBA8),1.01 ± 0.028,0.999 ± 0.04,0.968 ± 0.014,0.959 ± 0.038,0.943 ± 0.057,0.951 ± 0.044
PM20D2 (UniProt Q8IYS1),0.98 ± 0.04,0.91 ± 0.1,0.977 ± 0.025,0.964 ± 0.031,0.993 ± 0.034,0.94 ± 0.025
UniProt Q86WJ1 and related entries,0.989 ± 0.079,0.9547 ± 0.0042,1.02 ± 0.066,1.02 ± 0.071,1.06 ± 0.056,1.02 ± 0.042
AACS (UniProt Q86V21),0.974 ± 0.021,0.923 ± 0.035,0.973 ± 0.024,0.931 ± 0.011,0.936 ± 0.01,0.9257 ± 0.0035
UniProt Q7Z6V5 and related entries,0.968 ± 0.034,1.01 ± 0.0097,0.977 ± 0.037,0.999 ± 0.088,0.974 ± 0.068,0.985 ± 0.077
ARHGAP30 (UniProt Q7Z6I6),1.03 ± 0.016,1.03 ± 0.04,1.02 ± 0.019,1 ± 0.029,0.9876 ± 0.0094,0.997 ± 0.015
UniProt Q8NBK3 and related entries,1.018 ± 0.0033,1.001 ± 0.0057,0.991 ± 0.045,1.02 ± 0.041,1.01 ± 0.046,1 ± 0.013
PARG (UniProt Q86W56),1.06 ± 0.018,1.09 ± 0.056,1.05 ± 0.03,1.02 ± 0.031,0.999 ± 0.029,1.02 ± 0.026
UniProt Q86XI2 and related entries,0.9646 ± 0.0089,0.952 ± 0.066,0.978 ± 0.067,0.984 ± 0.054,0.977 ± 0.019,0.954 ± 0.069
UniProt Q86T03-2,1 ± 0.033,1.01 ± 0.019,0.98 ± 0.045,0.962 ± 0.023,0.984 ± 0.018,1.01 ± 0.027
UniProt Q8N6T7 and related entries,0.899 ± 0.021,0.931 ± 0.017,0.949 ± 0.033,0.932 ± 0.012,0.948 ± 0.041,0.979 ± 0.023
UniProt Q8N5M1 and related entries,0.957 ± 0.018,0.897 ± 0.097,0.939 ± 0.044,0.943 ± 0.013,0.959 ± 0.013,0.9 ± 0.023
SYTL1 (UniProt Q8IYJ3),1.005 ± 0.0053,1.07 ± 0.066,1.04 ± 0.019,0.997 ± 0.011,0.9992 ± 0.0074,1.01 ± 0.018
UniProt Q86X55 and related entries,0.939 ± 0.021,0.836 ± 0.12,0.902 ± 0.029,0.902 ± 0.032,0.926 ± 0.018,0.864 ± 0.015
UniProt Q7Z7K6 and related entries,1.08 ± 0.068,1.153 ± 0.0086,1.3 ± 0.087,1.51 ± 0.12,1.72 ± 0.052,2.1 ± 0.13
GPR180 (UniProt Q86V85),0.949 ± 0.019,0.999 ± 0.039,0.939 ± 0.014,1 ± 0.057,0.972 ± 0.048,1.01 ± 0.019
GPAT4 (UniProt Q86UL3),0.985 ± 0.02,0.9824 ± 0.0083,0.9808 ± 0.0044,0.9746 ± 0.0076,0.99 ± 0.025,0.9487 ± 0.0021
GSPT2 (UniProt Q8IYD1),1.07 ± 0.028,1.06 ± 0.04,1.06 ± 0.03,1.05 ± 0.014,1.04 ± 0.032,1.06 ± 0.044
GLCCI1 (UniProt Q86VQ1),1.027 ± 0.006,1.06 ± 0.035,0.994 ± 0.046,1.01 ± 0.04,0.9966 ± 0.0028,0.9912 ± 0.0063
RASAL3 (UniProt Q86YV0),1 ± 0.018,0.988 ± 0.028,1.01 ± 0.017,0.969 ± 0.03,0.969 ± 0.046,0.954 ± 0.019
HOMER1 (UniProt Q86YM7),0.994 ± 0.029,1.03 ± 0.049,1.01 ± 0.039,1 ± 0.011,1.01 ± 0.026,0.9818 ± 0.0089
UniProt Q8NB37,0.98 ± 0.017,0.967 ± 0.016,0.991 ± 0.03,0.991 ± 0.03,0.994 ± 0.019,0.996 ± 0.018

# Some values from the results shown.
# NP40-soluble protein abundance (concentration: 8mM) with SYTL1 (UniProt Q8IYJ3) reads 0.9992 ± 0.0074
# NP40-soluble protein abundance (concentration: 1mM) with HOMER1 (UniProt Q86YM7) reads 0.994 ± 0.029

# Reference: the supplement of paper PMC6411743
